Test [1] has as its target Cdc2/Cyclin B1 complex (UniProt P06493). The test can be described thus: ELISA, plate coated with 100 ng Cdc2/Cyclin B1 complex, 40 ng protein, anti-GADD45 detection. (In general: In an ELISA, binding on a coated surface is turned into a signal by an enzyme label.)
For test [2], the target named is Cdc2 (human) (UniProt P06493). The test can be described thus: co-immunoprecipitation with anti-Cdc2 from transfected HCT116 cells, anti-HA immunoblot. On the technique in general: In western blotting, separated proteins are transferred to a membrane and probed.
The target in test [3] is Cdc2/Cyclin B1 complex (UniProt P06493). Description: ELISA, plate coated with 100 ng Cdc2/Cyclin B1 complex, 40 ng rGADD45, anti-GADD45 detection.
The next test addresses PCNA (human) (UniProt P12004). The test can be described thus: co-immunoprecipitation with anti-PCNA from transfected HCT116 cells, anti-HA Western blot.
For test [4], the target named is p21^Cip1/Wafl (human) (UniProt P38936). The test can be described thus: co-immunoprecipitation with anti-p21 from transfected HCT116 cells, anti-HA Western blot.
In test [5] the target is Cdc2 (human) (UniProt P06493). Description: co-immunoprecipitation with anti-Cdc2 from transfected HCT116 cells, anti-HA Western blot.
In test [6] the target is p21^Cip1/Wafl (human) (UniProt P38936). Description: co-immunoprecipitation from transfected HCT116 cells (Example 8), retold.
The target in test [7] is Cdc2 (human) (UniProt P06493). The description is as above.
For test [8], the target named is Cdc2 (human) (UniProt P06493). Description: co-immunoprecipitation from transfected RKO cells (similar in MCF-7), immunoblot.

By UniProt entry, the sequences of proteins in these tests, tags left out.
UniProt P06493: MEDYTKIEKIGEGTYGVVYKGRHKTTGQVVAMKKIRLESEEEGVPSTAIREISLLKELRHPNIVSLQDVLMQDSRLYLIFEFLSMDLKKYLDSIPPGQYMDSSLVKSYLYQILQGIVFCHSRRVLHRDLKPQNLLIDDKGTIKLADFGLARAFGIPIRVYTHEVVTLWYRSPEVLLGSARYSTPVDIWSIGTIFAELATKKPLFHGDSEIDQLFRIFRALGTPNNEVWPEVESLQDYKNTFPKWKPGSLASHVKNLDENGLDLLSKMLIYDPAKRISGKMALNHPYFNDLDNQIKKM
UniProt P12004: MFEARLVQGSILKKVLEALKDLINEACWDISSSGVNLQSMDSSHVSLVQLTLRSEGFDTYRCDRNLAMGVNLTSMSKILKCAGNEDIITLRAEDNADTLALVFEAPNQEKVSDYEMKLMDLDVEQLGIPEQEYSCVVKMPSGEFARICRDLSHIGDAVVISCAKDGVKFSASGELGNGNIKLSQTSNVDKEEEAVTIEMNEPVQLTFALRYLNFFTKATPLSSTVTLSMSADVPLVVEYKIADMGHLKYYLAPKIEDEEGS
UniProt P38936: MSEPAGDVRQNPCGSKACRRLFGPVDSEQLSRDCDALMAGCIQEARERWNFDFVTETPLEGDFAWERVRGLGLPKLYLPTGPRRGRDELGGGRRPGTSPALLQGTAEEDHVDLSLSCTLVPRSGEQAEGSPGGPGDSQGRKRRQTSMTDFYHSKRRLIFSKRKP

Substitutions are numbered along the chain they refer to. These are yes or no findings as the source states them, for the method shown. For some assays here: Binding seen in cells or lysates may run through a third protein. Some results given as binding are weak or reduced against the parent protein; the word gives no strength. For some assays here: Where a sequence is shown, tags or fusion partners need not be part of it.

B1: GADD45 Δ125-166 (protein)
chain: MTLEEFSAGEQKTERMDKVGDALEEVLSKALSQRTITVGVYEAAKLLNVDPDNVVLCLLAADEDDDRDVALQIHFTLIQAFCCENDINILRVSNPGRLAELLLLETDAGPAASEGAEQPPDLHC
B1: the binding entry with Cdc2/Cyclin B1 complex [1] was “binds”.

B2: HA-tagged GADD45γ (protein, not shown: small tags and cut ends)
chain: MTLEEVRGQDTVPESTARMQGAGKALHELLLSAQRQGCLTAGVYESAKVLNVDPDNVTFCVLAAGEEDEGDIALQIHFTLIQAFCCENDIDIVRVGDVQRLAAIVGAGEEAGAPGDLHCILISNPNEDAWKDPALEKLSLFCEESRSVNDWVPSITLPE
For B2, the binding entry with Cdc2 (human) [2] is listed as “binds”.

B3: HA-tagged GADD45β (protein, not shown: small tags and cut ends)
chain: MTLEELVACDNAAQKMQTVTAAVEELLVAAQRQDRLTVGVYESAKLMNVDPDSVVLCLLAIDEEEEDDIALQIHFTLIQSFCCDNDINIVRVSGMQRLAQLLGEPAETQGTTEARDLHCLLVTNPHTDAWKSHGLVEVASYCEESRGNNQWVPYISLQER
Take B3: the binding entry in the test with Cdc2 (human) [2] is recorded as “binds”.

B4: full length recombinant GADD45 (rGADD45) (protein)
chain: MTLEEFSAGEQKTERMDKVGDALEEVLSKALSQRTITVGVYEAAKLLNVDPDNVVLCLLAADEDDDRDVALQIHFTLIQAFCCENDINILRVSNPGRLAELLLLETDAGPAASEGAEQPPDLHCVLVTNPHSSQWKDPALSQLICFCRESRYMDQWVPVINLPER
Consider B4, for which the binding entry in the test with Cdc2/Cyclin B1 complex [3] is on record as “binds”.

B5: HA-tagged full length GADD45 (1-165) (protein, not shown: small tags and cut ends)
chain: B4 chain
Turning to B5, the binding result in the test with PCNA (human), in the test with Cdc2 (human) [2], with p21^Cip1/Wafl (human) [4] and with Cdc2 (human) [5] was “binds” throughout.

B6: GADD45 site-mutagenesis mutant M62-67 (HA-tagged) (protein, not shown: small tags and cut ends)
chain: B4 chain with D62A, E63A, D64A, D65A, D66A, R67A
B6: the binding entry in the test with PCNA (human), in the test with p21^Cip1/Wafl (human) [6], in the test with Cdc2 (human) [7], in the test with p21^Cip1/Wafl (human) [4] and with Cdc2 (human) [5] was “binds” in each case.

B7: GADD45 site-mutagenesis mutant M74-79 (HA-tagged) (protein, not shown: small tags and cut ends)
chain: B4 chain with H74A, F75A, T76A, L77A, I78A, Q79A
As for B7, the binding entry in the test with PCNA (human), with p21^Cip1/Wafl (human) [4] and with Cdc2 (human) [5] was “binds” in each case.

B8: GADD45 site-mutagenesis mutant M82-87 (HA-tagged) (protein, not shown: small tags and cut ends)
chain: B4 chain with C82A, C83A, E84A, N85A, D86A, I87A
Take B8: the binding result in the test with PCNA (human), in the test with p21^Cip1/Wafl (human) [4] and in the test with Cdc2 (human) [5] was “binds” in each case.

B9: Myc-tag-GADD45 fusion protein (protein, not shown: small tags and cut ends)
chain: B4 chain
Consider B9, for which, in the test with Cdc2 (human) [8], the binding entry is “binds”.
